Measured values: the supplement of paper PMC6411743
± gives the standard deviation of the averaged measurements. The list shows a part of the results, in another mix than the full data.

Sequences of proteins named here, by UniProt entry; tags and fusion partners are left off. A change or cut given only in a name is not applied to a line headed by its entry.
UniProt Q9H061: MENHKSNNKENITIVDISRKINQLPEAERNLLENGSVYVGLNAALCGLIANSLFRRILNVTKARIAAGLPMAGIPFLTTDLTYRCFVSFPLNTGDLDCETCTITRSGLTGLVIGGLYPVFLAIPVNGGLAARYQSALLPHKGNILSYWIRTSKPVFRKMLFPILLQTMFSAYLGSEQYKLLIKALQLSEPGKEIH
UniProt Q9H3U1: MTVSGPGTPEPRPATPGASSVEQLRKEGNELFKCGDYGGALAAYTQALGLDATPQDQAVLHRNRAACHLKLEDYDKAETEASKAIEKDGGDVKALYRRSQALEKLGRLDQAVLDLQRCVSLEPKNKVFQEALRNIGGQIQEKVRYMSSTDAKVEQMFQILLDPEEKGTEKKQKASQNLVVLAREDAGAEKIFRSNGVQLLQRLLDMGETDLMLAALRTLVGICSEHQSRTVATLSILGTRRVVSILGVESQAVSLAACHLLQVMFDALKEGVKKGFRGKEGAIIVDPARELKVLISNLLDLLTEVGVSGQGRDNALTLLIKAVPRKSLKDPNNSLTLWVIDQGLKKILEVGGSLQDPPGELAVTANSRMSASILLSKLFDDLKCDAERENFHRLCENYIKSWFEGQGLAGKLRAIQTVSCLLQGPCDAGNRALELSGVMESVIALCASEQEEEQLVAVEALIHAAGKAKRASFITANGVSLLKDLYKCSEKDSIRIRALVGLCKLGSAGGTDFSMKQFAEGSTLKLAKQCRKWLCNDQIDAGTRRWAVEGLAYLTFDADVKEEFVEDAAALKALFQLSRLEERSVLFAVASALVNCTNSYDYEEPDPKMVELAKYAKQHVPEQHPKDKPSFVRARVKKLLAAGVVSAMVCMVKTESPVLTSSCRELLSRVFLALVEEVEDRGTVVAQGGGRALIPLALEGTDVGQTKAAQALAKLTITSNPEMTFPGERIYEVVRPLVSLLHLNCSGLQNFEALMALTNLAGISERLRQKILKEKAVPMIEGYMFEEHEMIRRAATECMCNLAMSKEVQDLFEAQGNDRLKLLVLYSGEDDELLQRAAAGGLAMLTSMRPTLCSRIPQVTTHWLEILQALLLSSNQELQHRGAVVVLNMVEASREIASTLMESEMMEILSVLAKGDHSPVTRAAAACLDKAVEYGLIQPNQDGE
UniProt Q9H4L5: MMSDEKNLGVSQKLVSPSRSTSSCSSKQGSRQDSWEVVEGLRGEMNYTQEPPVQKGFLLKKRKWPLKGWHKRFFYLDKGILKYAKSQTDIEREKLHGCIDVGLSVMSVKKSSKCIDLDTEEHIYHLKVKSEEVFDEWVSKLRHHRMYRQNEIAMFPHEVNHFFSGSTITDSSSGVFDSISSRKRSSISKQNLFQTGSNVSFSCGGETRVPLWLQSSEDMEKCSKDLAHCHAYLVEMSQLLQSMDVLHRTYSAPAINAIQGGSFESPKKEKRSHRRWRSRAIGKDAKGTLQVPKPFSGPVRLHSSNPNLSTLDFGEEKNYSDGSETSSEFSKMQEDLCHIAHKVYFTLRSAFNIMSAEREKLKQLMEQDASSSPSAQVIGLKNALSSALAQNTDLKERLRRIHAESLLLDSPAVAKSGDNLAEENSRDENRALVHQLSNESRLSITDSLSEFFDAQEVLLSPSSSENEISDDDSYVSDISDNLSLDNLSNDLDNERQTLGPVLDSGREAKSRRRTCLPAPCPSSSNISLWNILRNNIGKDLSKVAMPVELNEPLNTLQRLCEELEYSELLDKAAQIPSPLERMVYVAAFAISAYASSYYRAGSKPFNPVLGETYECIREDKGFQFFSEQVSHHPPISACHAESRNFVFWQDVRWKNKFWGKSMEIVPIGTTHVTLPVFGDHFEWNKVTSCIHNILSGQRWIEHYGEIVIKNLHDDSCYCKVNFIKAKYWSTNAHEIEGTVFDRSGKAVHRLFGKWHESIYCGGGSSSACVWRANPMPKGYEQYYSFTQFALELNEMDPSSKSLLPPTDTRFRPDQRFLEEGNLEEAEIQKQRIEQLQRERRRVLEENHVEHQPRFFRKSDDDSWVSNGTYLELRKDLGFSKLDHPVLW
UniProt Q9HD15: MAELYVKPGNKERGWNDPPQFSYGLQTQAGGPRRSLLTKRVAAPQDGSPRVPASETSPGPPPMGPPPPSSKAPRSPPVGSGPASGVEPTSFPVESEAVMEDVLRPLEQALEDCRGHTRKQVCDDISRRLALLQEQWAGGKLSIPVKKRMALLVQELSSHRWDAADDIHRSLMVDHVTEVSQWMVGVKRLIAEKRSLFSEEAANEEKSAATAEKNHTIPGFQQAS
UniProt Q9H6Z4: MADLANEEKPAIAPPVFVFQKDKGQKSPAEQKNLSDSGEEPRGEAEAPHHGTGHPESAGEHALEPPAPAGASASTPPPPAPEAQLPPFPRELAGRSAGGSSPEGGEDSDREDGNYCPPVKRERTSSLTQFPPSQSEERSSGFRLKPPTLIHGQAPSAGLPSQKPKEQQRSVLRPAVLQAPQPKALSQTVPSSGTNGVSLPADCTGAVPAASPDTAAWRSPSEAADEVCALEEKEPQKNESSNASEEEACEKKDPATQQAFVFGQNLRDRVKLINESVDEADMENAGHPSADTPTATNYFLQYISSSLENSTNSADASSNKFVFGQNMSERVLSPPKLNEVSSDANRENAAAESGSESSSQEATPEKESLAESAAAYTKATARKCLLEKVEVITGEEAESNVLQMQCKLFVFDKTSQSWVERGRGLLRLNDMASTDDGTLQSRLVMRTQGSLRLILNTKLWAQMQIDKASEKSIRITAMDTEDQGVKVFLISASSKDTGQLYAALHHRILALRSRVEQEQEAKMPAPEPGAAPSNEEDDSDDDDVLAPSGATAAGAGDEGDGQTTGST
UniProt Q9H4X1: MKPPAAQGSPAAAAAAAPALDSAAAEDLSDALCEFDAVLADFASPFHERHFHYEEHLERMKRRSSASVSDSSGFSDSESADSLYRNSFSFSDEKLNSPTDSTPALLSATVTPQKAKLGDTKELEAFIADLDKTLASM
UniProt Q9H857: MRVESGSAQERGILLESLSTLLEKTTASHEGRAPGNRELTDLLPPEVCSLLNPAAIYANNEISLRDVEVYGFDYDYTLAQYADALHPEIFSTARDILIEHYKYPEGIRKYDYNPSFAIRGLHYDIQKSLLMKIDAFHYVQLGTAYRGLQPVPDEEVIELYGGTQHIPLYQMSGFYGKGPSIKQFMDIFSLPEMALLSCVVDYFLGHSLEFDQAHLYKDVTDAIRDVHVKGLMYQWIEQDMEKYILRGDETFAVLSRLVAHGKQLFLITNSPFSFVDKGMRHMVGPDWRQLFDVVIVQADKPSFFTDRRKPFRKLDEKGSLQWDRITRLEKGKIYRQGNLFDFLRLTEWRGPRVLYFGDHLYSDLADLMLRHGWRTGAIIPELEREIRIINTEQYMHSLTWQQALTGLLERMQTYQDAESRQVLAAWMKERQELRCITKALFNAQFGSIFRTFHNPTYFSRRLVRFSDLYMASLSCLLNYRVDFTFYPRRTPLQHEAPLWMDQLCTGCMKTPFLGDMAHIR
UniProt Q9HBK9: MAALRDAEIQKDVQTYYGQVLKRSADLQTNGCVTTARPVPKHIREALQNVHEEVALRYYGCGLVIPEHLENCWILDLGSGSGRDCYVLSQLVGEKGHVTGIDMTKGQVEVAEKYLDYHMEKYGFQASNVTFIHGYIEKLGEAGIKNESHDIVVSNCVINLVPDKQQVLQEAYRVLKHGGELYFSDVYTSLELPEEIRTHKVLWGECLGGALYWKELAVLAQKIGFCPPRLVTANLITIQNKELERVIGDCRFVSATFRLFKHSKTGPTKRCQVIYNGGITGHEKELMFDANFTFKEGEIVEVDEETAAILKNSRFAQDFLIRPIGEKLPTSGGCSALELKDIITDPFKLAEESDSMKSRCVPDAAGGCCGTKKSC
UniProt Q9C0E8: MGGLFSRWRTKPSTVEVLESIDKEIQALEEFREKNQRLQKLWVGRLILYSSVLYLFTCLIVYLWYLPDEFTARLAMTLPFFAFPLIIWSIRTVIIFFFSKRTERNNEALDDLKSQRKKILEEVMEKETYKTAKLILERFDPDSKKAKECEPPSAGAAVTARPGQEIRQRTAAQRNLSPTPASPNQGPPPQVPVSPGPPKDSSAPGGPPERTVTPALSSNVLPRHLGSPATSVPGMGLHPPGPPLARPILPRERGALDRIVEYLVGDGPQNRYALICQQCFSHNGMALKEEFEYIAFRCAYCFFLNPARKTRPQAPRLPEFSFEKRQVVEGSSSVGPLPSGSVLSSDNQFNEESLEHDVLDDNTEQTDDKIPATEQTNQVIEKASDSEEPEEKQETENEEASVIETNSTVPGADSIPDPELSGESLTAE
UniProt Q9H8G2: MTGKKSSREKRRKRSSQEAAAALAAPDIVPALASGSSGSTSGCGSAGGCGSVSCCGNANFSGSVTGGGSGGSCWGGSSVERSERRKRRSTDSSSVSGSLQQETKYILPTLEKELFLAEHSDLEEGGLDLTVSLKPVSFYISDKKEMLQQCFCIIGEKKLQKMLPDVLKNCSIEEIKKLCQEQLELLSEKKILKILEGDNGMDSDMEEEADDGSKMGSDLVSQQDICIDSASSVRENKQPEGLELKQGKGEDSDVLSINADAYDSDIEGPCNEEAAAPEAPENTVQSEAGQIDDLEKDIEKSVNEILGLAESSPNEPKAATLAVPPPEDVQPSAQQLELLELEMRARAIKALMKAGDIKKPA
UniProt Q9H2G9: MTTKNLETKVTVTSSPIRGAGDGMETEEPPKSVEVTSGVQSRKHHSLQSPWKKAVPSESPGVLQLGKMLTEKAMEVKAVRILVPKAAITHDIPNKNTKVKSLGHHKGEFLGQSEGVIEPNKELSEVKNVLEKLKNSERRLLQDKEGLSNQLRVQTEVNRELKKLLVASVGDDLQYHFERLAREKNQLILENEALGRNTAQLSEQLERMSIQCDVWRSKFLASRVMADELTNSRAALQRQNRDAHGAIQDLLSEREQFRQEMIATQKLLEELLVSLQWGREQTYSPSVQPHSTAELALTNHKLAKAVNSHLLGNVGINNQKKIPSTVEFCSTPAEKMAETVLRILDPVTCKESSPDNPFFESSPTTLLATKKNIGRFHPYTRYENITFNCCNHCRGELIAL
UniProt Q9H6K5: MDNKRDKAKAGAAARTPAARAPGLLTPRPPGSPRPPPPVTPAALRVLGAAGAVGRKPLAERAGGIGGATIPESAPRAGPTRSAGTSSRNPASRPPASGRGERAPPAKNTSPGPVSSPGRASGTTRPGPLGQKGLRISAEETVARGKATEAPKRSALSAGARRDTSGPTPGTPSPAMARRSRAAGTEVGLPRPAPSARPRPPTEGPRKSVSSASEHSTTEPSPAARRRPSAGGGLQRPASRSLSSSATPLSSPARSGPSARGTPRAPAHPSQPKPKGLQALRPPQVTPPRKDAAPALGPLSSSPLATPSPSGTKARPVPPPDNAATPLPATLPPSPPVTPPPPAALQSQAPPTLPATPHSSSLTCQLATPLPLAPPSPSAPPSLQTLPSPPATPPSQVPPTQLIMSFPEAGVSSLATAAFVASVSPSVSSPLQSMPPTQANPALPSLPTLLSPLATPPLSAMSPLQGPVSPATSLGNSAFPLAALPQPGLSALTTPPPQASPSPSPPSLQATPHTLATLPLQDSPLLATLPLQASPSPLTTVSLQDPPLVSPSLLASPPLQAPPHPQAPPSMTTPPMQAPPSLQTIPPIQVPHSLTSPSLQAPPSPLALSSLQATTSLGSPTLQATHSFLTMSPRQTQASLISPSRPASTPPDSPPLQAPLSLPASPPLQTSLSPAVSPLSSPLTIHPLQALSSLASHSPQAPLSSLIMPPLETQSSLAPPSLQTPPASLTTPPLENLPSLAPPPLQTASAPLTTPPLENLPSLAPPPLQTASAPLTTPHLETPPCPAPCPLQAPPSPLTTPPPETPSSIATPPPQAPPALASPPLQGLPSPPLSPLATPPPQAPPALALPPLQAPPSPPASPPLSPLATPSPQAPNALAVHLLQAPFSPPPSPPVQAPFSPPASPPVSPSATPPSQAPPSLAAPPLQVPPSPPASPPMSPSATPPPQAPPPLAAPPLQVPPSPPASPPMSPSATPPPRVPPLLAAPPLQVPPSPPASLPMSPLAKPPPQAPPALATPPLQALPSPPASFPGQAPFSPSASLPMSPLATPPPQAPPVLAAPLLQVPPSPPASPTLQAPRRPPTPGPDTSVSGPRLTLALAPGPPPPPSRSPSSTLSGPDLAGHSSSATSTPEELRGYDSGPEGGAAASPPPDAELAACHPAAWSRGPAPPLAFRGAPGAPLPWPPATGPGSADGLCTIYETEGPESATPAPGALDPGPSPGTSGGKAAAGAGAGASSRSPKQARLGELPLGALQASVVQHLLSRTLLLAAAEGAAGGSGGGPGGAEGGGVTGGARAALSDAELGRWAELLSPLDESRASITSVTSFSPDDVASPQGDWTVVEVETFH
UniProt Q9H098: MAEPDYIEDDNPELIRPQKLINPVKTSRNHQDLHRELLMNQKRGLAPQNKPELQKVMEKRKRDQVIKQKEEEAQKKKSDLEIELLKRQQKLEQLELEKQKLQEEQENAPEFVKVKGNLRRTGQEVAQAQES

Compound: Nc1ncnc2c1ncn2[C@@H]1O[C@H](COP(=O)(O)OP(=O)(O)OP(=O)(O)O)[C@@H](O)[C@H]1O [adenosine triphosphate]
Assay: NP40-soluble protein abundance relative to vehicle (solubility fold change) (ratio); higher = more soluble protein in presence of ATP
How it was run: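 Across three independent experiments, values are fold changes against the detergent-processed vehicle for each replicate, based on vsn-normalised intensities. The samples were Jurkat crude lysate treated with eight concentrations (0.1 to 10 mM) for 10 min at room temperature and then 3 min at 37 °C. Lysate was solubilised with 0.8% NP40 and benzonase, ultracentrifuged, and the supernatant analysed by TMT-labelled LC-MS/MS.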

Target	NP40-soluble protein abundance (concentration: 1mM)	NP40-soluble protein abundance (concentration: 2mM)	NP40-soluble protein abundance (concentration: 4mM)	NP40-soluble protein abundance (concentration: 6mM)	NP40-soluble protein abundance (concentration: 8mM)	NP40-soluble protein abundance (concentration: 10mM)
TMEM168 (UniProt Q9H0V1)	1.191 ± 0.0025	1.101 ± 0.0017	1.14 ± 0.11	1.09 ± 0.053	1.196 ± 0.0024	0.965 ± 0.14
C12orf10 (UniProt Q9HB07)	0.9606 ± 0.0039	0.968 ± 0.023	0.941 ± 0.021	0.948 ± 0.052	0.948 ± 0.028	0.94 ± 0.041
TMEM126A (UniProt Q9H061)	1.01 ± 0.13	1.01 ± 0.064	0.976 ± 0.087	0.893 ± 0.086	1 ± 0.046	1.05 ± 0.1
UniProt Q9H7F0 and related entries	1.07 ± 0.037	1.06 ± 0.091	1.13 ± 0.17	1.12 ± 0.052	1.02 ± 0.024	1.05 ± 0.09
UniProt Q9H3U1 and related entries	0.949 ± 0.028	0.932 ± 0.041	0.928 ± 0.033	0.907 ± 0.047	0.923 ± 0.029	0.927 ± 0.037
OSBPL3 (UniProt Q9H4L5)	1.08 ± 0.025	1.08 ± 0.01	1.07 ± 0.025	1.08 ± 0.038	1.03 ± 0.029	1.07 ± 0.04
COMMD5 (UniProt Q9GZQ3)	0.864 ± 0.016	0.865 ± 0.03	0.8766 ± 0.0064	0.758 ± 0.082	0.902 ± 0.052	0.819 ± 0.063
WDR61 (UniProt Q9GZS3)	1.04 ± 0.052	1.01 ± 0.04	1 ± 0.046	1.01 ± 0.039	1.04 ± 0.036	0.959 ± 0.026
UniProt Q9GZN8 and related entries	1.07 ± 0.065	1.07 ± 0.038	1.08 ± 0.027	1.02 ± 0.028	1.05 ± 0.015	1.02 ± 0.053
PDF (UniProt Q9HBH1)	0.968 ± 0.032	0.973 ± 0.02	0.961 ± 0.032	0.979 ± 0.049	0.942 ± 0.083	0.932 ± 0.059
GHITM (UniProt Q9H3K2)	0.944 ± 0.076	0.875 ± 0.084	0.859 ± 0.08	0.864 ± 0.2	0.899 ± 0.064	0.882 ± 0.056
VPS33B (UniProt Q9H267)	1.01 ± 0.085	1.01 ± 0.073	1.01 ± 0.06	0.967 ± 0.094	1.02 ± 0.025	0.989 ± 0.048
UniProt Q9H0W9 and related entries	0.99 ± 0.043	0.979 ± 0.019	0.981 ± 0.035	0.995 ± 0.044	0.971 ± 0.033	0.965 ± 0.05
UniProt Q9H2G2-2	0.949 ± 0.038	0.953 ± 0.025	0.92 ± 0.014	0.965 ± 0.014	0.914 ± 0.027	0.926 ± 0.015
SRA1 (UniProt Q9HD15)	0.9965 ± 0.0092	0.955 ± 0.083	1.03 ± 0.028	0.983 ± 0.092	0.973 ± 0.042	0.901 ± 0.078
SCAF1 (UniProt Q9H7N4)	1.34 ± 0.11	1.4 ± 0.11	1.48 ± 0.087	1.58 ± 0.091	1.49 ± 0.077	1.51 ± 0.087
UniProt Q9H7Z3 and related entries	1.04 ± 0.075	1.08 ± 0.038	1.131 ± 0.01	1.1 ± 0.061	1.17 ± 0.073	1.18 ± 0.022
ANKZF1 (UniProt Q9H8Y5)	1.04 ± 0.036	1.04 ± 0.015	1.06 ± 0.027	1.03 ± 0.036	1.01 ± 0.033	1.02 ± 0.018
UniProt Q9H6Z4 and related entries	0.934 ± 0.04	0.962 ± 0.032	0.921 ± 0.011	0.962 ± 0.042	0.9052 ± 0.0085	0.911 ± 0.011
UniProt Q9H4X1 and related entries	0.952 ± 0.07	0.95 ± 0.074	0.973 ± 0.092	1.06 ± 0.16	0.922 ± 0.095	0.887 ± 0.13

Laid out differently: entries from further up
Target,NP40-soluble protein abundance (concentration: 1mM),NP40-soluble protein abundance (concentration: 2mM),NP40-soluble protein abundance (concentration: 4mM),NP40-soluble protein abundance (concentration: 6mM),NP40-soluble protein abundance (concentration: 8mM),NP40-soluble protein abundance (concentration: 10mM)
COMMD5 (UniProt Q9GZQ3),0.864 ± 0.016,0.865 ± 0.03,0.8766 ± 0.0064,0.758 ± 0.082,0.902 ± 0.052,0.819 ± 0.063
WDR61 (UniProt Q9GZS3),1.04 ± 0.052,1.01 ± 0.04,1 ± 0.046,1.01 ± 0.039,1.04 ± 0.036,0.959 ± 0.026
UniProt Q9GZN8 and related entries,1.07 ± 0.065,1.07 ± 0.038,1.08 ± 0.027,1.02 ± 0.028,1.05 ± 0.015,1.02 ± 0.053
PDF (UniProt Q9HBH1),0.968 ± 0.032,0.973 ± 0.02,0.961 ± 0.032,0.979 ± 0.049,0.942 ± 0.083,0.932 ± 0.059
GHITM (UniProt Q9H3K2),0.944 ± 0.076,0.875 ± 0.084,0.859 ± 0.08,0.864 ± 0.2,0.899 ± 0.064,0.882 ± 0.056
VPS33B (UniProt Q9H267),1.01 ± 0.085,1.01 ± 0.073,1.01 ± 0.06,0.967 ± 0.094,1.02 ± 0.025,0.989 ± 0.048
UniProt Q9H0W9 and related entries,0.99 ± 0.043,0.979 ± 0.019,0.981 ± 0.035,0.995 ± 0.044,0.971 ± 0.033,0.965 ± 0.05
UniProt Q9H2G2-2,0.949 ± 0.038,0.953 ± 0.025,0.92 ± 0.014,0.965 ± 0.014,0.914 ± 0.027,0.926 ± 0.015
SRA1 (UniProt Q9HD15),0.9965 ± 0.0092,0.955 ± 0.083,1.03 ± 0.028,0.983 ± 0.092,0.973 ± 0.042,0.901 ± 0.078
SCAF1 (UniProt Q9H7N4),1.34 ± 0.11,1.4 ± 0.11,1.48 ± 0.087,1.58 ± 0.091,1.49 ± 0.077,1.51 ± 0.087
UniProt Q9H7Z3 and related entries,1.04 ± 0.075,1.08 ± 0.038,1.131 ± 0.01,1.1 ± 0.061,1.17 ± 0.073,1.18 ± 0.022
ANKZF1 (UniProt Q9H8Y5),1.04 ± 0.036,1.04 ± 0.015,1.06 ± 0.027,1.03 ± 0.036,1.01 ± 0.033,1.02 ± 0.018

Additional records

Target	NP40-soluble protein abundance (concentration: 1mM)	NP40-soluble protein abundance (concentration: 2mM)	NP40-soluble protein abundance (concentration: 4mM)	NP40-soluble protein abundance (concentration: 6mM)	NP40-soluble protein abundance (concentration: 8mM)	NP40-soluble protein abundance (concentration: 10mM)
MRPL46 (UniProt Q9H2W6)	0.987 ± 0.1	0.927 ± 0.099	0.899 ± 0.067	0.913 ± 0.16	0.935 ± 0.11	0.86 ± 0.091
GORASP2 (UniProt Q9H8Y8)	0.909 ± 0.053	0.906 ± 0.011	0.911 ± 0.016	0.919 ± 0.017	0.885 ± 0.0096	0.877 ± 0.022
WDR33 (UniProt Q9C0J8)	1.23 ± 0.046	1.32 ± 0.037	1.4 ± 0.059	1.52 ± 0.1	1.54 ± 0.091	1.56 ± 0.074
ADNP (UniProt Q9H2P0)	1.05 ± 0.036	1.06 ± 0.048	1.07 ± 0.046	1.1 ± 0.082	1.09 ± 0.044	1.1 ± 0.042
PARP12 (UniProt Q9H0J9)	1.06 ± 0.084	1.08 ± 0.075	1.07 ± 0.071	1.03 ± 0.11	1.06 ± 0.016	1.04 ± 0.036
UniProt Q9H477 and related entries	1.04 ± 0.076	1 ± 0.078	1.02 ± 0.088	0.984 ± 0.13	1.04 ± 0.047	1.02 ± 0.065
UniProt Q9HD47 and related entries	1.02 ± 0.022	0.973 ± 0.033	1.05 ± 0.052	0.949 ± 0.096	1.03 ± 0.069	1.03 ± 0.12
UniProt Q9H857 and related entries	1.1 ± 0.21	1.03 ± 0.14	1.04 ± 0.15	0.887 ± 0.19	1.11 ± 0.1	1.02 ± 0.1
SHARPIN (UniProt Q9H0F6)	0.987 ± 0.017	0.977 ± 0.047	0.943 ± 0.053	0.992 ± 0.07	0.972 ± 0.04	0.925 ± 0.036
HMG20A (UniProt Q9NP66)	1.05 ± 0.12	1.05 ± 0.055	1.06 ± 0.085	1.15 ± 0.17	1.18 ± 0.12	1.15 ± 0.14
UniProt Q9H7E2-3	0.927 ± 0.071	0.98 ± 0.092	1.03 ± 0.093	1.1 ± 0.05	1.1 ± 0.057	1.23 ± 0.066
AZI2 (UniProt Q9H6S1)	1.01 ± 0.12	0.99 ± 0.04	0.967 ± 0.065	0.96 ± 0.029	0.958 ± 0.14	0.92 ± 0.14
UniProt Q9HBK9	1.02 ± 0.11	0.997 ± 0.069	1.01 ± 0.088	0.977 ± 0.14	0.959 ± 0.052	0.965 ± 0.029
SLC25A19 (UniProt Q9HC21)	0.944 ± 0.077	0.937 ± 0.026	0.961 ± 0.039	0.876 ± 0.087	1.01 ± 0.031	1.06 ± 0.033
AGO4 (UniProt Q9HCK5)	1.04 ± 0.059	1.02 ± 0.064	0.998 ± 0.089	0.885 ± 0.028	1.01 ± 0.053	1.09 ± 0.026
UniProt Q9H9T3 and related entries	1.04 ± 0.1	0.988 ± 0.039	0.962 ± 0.037	0.934 ± 0.027	1 ± 0.0067	0.973 ± 0.017
PPCS (UniProt Q9HAB8)	0.956 ± 0.057	0.974 ± 0.022	0.941 ± 0.026	0.919 ± 0.097	0.933 ± 0.012	0.944 ± 0.019
SUDS3 (UniProt Q9H7L9)	1.01 ± 0.024	1.01 ± 0.011	1.02 ± 0.03	0.983 ± 0.11	1.02 ± 0.062	1.06 ± 0.012
UniProt Q9HCM1	0.92 ± 0.12	0.938 ± 0.12	0.998 ± 0.16	1.05 ± 0.21	0.972 ± 0.17	0.935 ± 0.077
LSG1 (UniProt Q9H089)	1.07 ± 0.03	1.08 ± 0.021	1.072 ± 0.0071	1.08 ± 0.03	1.09 ± 0.036	1.11 ± 0.055

Target	NP40-soluble protein abundance (concentration: 1mM)	NP40-soluble protein abundance (concentration: 2mM)	NP40-soluble protein abundance (concentration: 4mM)	NP40-soluble protein abundance (concentration: 6mM)	NP40-soluble protein abundance (concentration: 8mM)	NP40-soluble protein abundance (concentration: 10mM)
UniProt Q9H4A4 and related entries	1.07 ± 0.026	1.02 ± 0.035	1.01 ± 0.05	0.973 ± 0.074	1.04 ± 0.027	0.994 ± 0.032
UniProt Q9C0E8 and related entries	0.929 ± 0.055	0.959 ± 0.028	0.954 ± 0.025	0.934 ± 0.019	0.937 ± 0.062	0.962 ± 0.029
UniProt Q9H246	1.11 ± 0.17	1.22 ± 0.089	1.11 ± 0.059	1.17 ± 0.15	1.07 ± 0.21	1.13 ± 0.093
UniProt Q9H8G2	1.08 ± 0.076	1.13 ± 0.052	1.24 ± 0.067	1.32 ± 0.019	1.33 ± 0.047	1.37 ± 0.017
UniProt Q9HC38-2|F6TLX2	0.949 ± 0.026	0.924 ± 0.07	0.9623 ± 0.0052	0.973 ± 0.058	0.95 ± 0.055	0.914 ± 0.048
UniProt Q9C037 and related entries	1.02 ± 0.012	1.02 ± 0.03	1 ± 0.018	1.01 ± 0.043	1.02 ± 0.018	1.02 ± 0.018
UniProt Q9H3Z4 and related entries	0.955 ± 0.1	0.979 ± 0.033	0.948 ± 0.07	0.944 ± 0.025	0.911 ± 0.035	0.893 ± 0.04
BLZF1 (UniProt Q9H2G9)	0.962 ± 0.1	1 ± 0.11	1.1 ± 0.077	1.13 ± 0.078	1.07 ± 0.1	1.01 ± 0.067
UniProt Q9H334 and related entries	1.01 ± 0.018	1.03 ± 0.075	1.08 ± 0.11	1.02 ± 0.081	1.02 ± 0.12	1.03 ± 0.14
FTO (UniProt Q9C0B1)	1.02 ± 0.054	0.997 ± 0.06	0.975 ± 0.046	0.989 ± 0.074	0.987 ± 0.053	0.972 ± 0.052
UniProt Q9H6K5 and related entries	0.986 ± 0.1	0.967 ± 0.098	0.977 ± 0.053	0.975 ± 0.096	0.908 ± 0.051	0.931 ± 0.069
UniProt Q9H098 and related entries	0.891 ± 0.097	0.905 ± 0.13	0.971 ± 0.084	0.939 ± 0.083	0.837 ± 0.013	0.853 ± 0.2
UniProt Q9H008 and related entries	0.979 ± 0.019	0.9536 ± 0.0038	0.9154 ± 0.0088	0.927 ± 0.025	0.9355 ± 0.0063	0.944 ± 0.016
GOLPH3 (UniProt Q9H4A6)	0.944 ± 0.04	0.969 ± 0.046	0.98 ± 0.066	0.931 ± 0.063	0.944 ± 0.076	0.938 ± 0.075
MRPS30 (UniProt Q9NP92)	1.04 ± 0.026	0.983 ± 0.13	0.914 ± 0.086	0.946 ± 0.23	0.928 ± 0.19	0.879 ± 0.2
PHAX (UniProt Q9H814)	0.967 ± 0.023	0.98 ± 0.018	0.958 ± 0.014	1.01 ± 0.018	0.971 ± 0.026	0.979 ± 0.019
UniProt Q9H7H0 and related entries	0.997 ± 0.035	0.982 ± 0.086	1.1 ± 0.12	1.05 ± 0.15	1.07 ± 0.14	0.967 ± 0.064
GAN (UniProt Q9H2C0)	1.07 ± 0.12	1.04 ± 0.032	1.02 ± 0.052	0.928 ± 0.085	1.03 ± 0.053	1.03 ± 0.025
UniProt Q9H903 and related entries	1.03 ± 0.078	0.914 ± 0.053	1.06 ± 0.17	0.996 ± 0.06	0.999 ± 0.11	0.928 ± 0.022
UniProt Q9HAF1 and related entries	1.17 ± 0.079	1.22 ± 0.11	1.27 ± 0.059	1.37 ± 0.14	1.4 ± 0.099	1.37 ± 0.23
